Experimental data published in article PMC8532385.
These are yes or no findings as the source states them, for the method shown. In cells and extracts the contact can be indirect. Tags and fused reporters may be left off the sequences shown. One block for each binder: values may come before it.

What was measured:
[1] = target: T1, MIEF2^Δ50-104 (V5-tagged, self-association-deficient mutant) (human) (UniProt Q96C03); assay: cross-linking; in vivo crosslinking of transfected cells with 1 mM DSS in PBS, 1 h at room temperature (DMSO as control), stopped with 20 mM Tris pH 7.5; Western blot (Figure S7b, d)
T1 sequence: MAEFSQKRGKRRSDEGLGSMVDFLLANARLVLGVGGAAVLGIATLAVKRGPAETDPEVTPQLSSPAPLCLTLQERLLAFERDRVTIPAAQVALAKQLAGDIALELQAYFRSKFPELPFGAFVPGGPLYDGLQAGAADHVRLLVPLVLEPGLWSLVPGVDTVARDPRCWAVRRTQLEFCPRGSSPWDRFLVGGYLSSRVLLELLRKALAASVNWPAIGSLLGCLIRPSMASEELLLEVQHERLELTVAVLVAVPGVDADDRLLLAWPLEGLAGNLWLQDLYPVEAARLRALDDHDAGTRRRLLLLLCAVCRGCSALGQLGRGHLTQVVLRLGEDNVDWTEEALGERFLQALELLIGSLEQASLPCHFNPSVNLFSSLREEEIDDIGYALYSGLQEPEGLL

[2] = target: T2, MIEF1^Δ109-154 (V5-tagged, self-association-deficient mutant) (human) (UniProt Q9NQG6); assay: as above
T2 sequence: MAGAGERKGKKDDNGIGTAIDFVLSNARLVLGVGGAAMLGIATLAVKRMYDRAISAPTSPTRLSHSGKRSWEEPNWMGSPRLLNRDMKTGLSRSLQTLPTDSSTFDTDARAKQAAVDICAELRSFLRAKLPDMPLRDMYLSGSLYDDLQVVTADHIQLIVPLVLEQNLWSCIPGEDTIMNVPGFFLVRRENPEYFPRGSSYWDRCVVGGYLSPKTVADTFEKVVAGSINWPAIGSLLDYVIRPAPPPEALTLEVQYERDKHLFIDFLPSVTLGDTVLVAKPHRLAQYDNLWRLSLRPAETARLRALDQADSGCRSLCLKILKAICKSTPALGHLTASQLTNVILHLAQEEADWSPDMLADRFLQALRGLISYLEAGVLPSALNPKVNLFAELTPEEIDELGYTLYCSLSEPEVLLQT

binding [1]: no binding
B1: MIEF2^Δ50-104 (V5-tagged, self-association-deficient mutant) (protein, UniProt Q96C03-1)
chain: T1 sequence

binding [2]: no binding
B2: MIEF1^Δ109-154 (V5-tagged, self-association-deficient mutant) (protein, UniProt Q9NQG6-1)
chain: T2 sequence
